No constants are given. Whether binding was seen depends on the method and setting. Binding seen in cells or lysates may run through a third protein. Binding can be weak; no strength is given. Sequences can lack the tags named with a protein.

In this assay the target is T1, GST-Rab11a-Q70L (UniProt P62490).
T1 sequence: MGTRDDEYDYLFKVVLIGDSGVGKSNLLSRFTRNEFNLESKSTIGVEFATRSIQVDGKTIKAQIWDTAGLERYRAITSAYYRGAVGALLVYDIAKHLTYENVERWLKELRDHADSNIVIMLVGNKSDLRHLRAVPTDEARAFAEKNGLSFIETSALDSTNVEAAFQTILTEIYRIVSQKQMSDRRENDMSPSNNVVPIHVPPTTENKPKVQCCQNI
The experiment in a line: pull-down; 65 ug GST-Rab11a-Q70L on GSH-Sepharose 4B beads; lysates of HEK293 cells co-transfected with Myc-Spir-2-FL, mStrawberry-FMN2-FH2-FSI and eGFP-MyoVa-D-FL or eGFP-MyoVa-D-Q1753R; 2 hr at 4°C; immunoblot; only the target purified. For orientation: In western blotting, separated proteins are transferred to a membrane and probed.

Take GFP-MyoVa-FL: the binding result is “binds”. For GFP-MyoVa-Q1753R, the binding result is “no binding”.

The values are drawn from PMC5021521, “Coordinated recruitment of Spir actin nucleators and myosin V motors to Rab11 vesicle membranes” (eLife, 2016).
